The list does not hold the whole screen: it gathers tests that were run many times, whatever their T/C, doses with no T/C, and many T/C values between a quarter and a half above the control. Other doses and runs of a compound stand elsewhere. T/C: endpoint of the treated group in % of that of the vehicle group. Some doses have a count of surviving animals in place of a T/C: the source files T/C as zero there, which appears to mark a toxic dose or a test without result, not a measured value. Some doses without a T/C left all or most animals alive at the check, yet need not have been tolerated: survival well below the control is almost never listed, so the zero probably covers shortened survival too. Survivors were counted at the toxicity check, usually on the fifth day, unless a day is given; later deaths do not show. Schedule codes are those of the source, taken here to give the interval after Q, in days (D) or hours (H), and the number of doses after X. Some entries hold several experiments; the results are listed from low to high. Where survival is the endpoint, this PubChem deposit counts one and a half times the control or more as active, and values a quarter to a half above the control carry no call in these data; other NCI protocols may use other cut-offs. Some T/C values carry the count of animals alive at the toxicity check (mostly the fifth day); without a count, all were alive then.
Test system: BDF1 mice, B16 melanoma ip, median survival T/C
Test: NCI In Vivo Anticancer Drug Screen. Data for tumor model B16 Melanoma (intraperitoneal) in B6D2F1 (BDF1) mice
Settings: T/C endpoint: median survival time, higher T/C = longer survival
Method in brief: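 Survival or tumor size is measured after treatment of tumor-bearing mice and normalised to the vehicle-treated control group.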

[1] = dose: 8.0 mg/kg/injection, schedule: Q01DX009 (ip), vehicle: Klucel (hydroxypropylcellulose) (HPC)
[2] = dose: 400.0 mg/kg/injection, schedule: Q01DX009 (ip), vehicle: Klucel (hydroxypropylcellulose) (HPC)
[3] = dose: 64.0 mg/kg/injection, schedule: Q01DX009 (ip), vehicle: saline

`CC(C)CCCCCCCCCCCCC(=O)NCC(=O)NC1C(O)C(O)C(Nc2ncnc3nc[nH]c23)OC1C(O)CO` (stereo not given) was tested, and the T/C (dose: 0.25 mg/kg/injection, schedule: Q01DX009 (ip), vehicle: saline) was 131 % of control, the T/C (dose: 0.5 mg/kg/injection, schedule: Q01DX009 (ip), vehicle: Klucel (hydroxypropylcellulose) (HPC)) was 140 % of control and the T/C (dose: 0.5 mg/kg/injection, schedule: Q01DX009 (ip), vehicle: saline) was 138 and 142 % of control. The T/C (dose: 0.75 mg/kg/injection, schedule: Q01DX009 (ip), vehicle: saline) was 148 % of control, the T/C (dose: 1.0 mg/kg/injection, schedule: Q01DX009 (ip), vehicle: Klucel (hydroxypropylcellulose) (HPC)) was 141 % of control and the T/C (dose: 1.0 mg/kg/injection, schedule: Q01DX009 (ip), vehicle: saline) was 149 % of control. The survivor count (dose: 1.5 mg/kg/injection, schedule: Q01DX009 (ip), vehicle: saline) was 10 of 10, the survivor count (dose: 2.0 mg/kg/injection, schedule: Q01DX009 (ip), vehicle: Klucel (hydroxypropylcellulose) (HPC)) was 10 of 10 and the survivor count (dose: 2.0 mg/kg/injection, schedule: Q01DX009 (ip), vehicle: saline) was 10 of 10. The survivor count (dose: 4.0 mg/kg/injection, schedule: Q01DX009 (ip), vehicle: Klucel (hydroxypropylcellulose) (HPC)) was 10 of 10, the survivor count (dose: 4.0 mg/kg/injection, schedule: Q01DX009 (ip), vehicle: saline) was 10 of 10 and the survivor count [1] was 10 of 10. The survivor count (dose: 8.0 mg/kg/injection, schedule: Q01DX009 (ip), vehicle: saline) was 8 of 10, the survivor count (dose: 1000.0 micrograms/kg/injection, schedule: Q01DX009 (ip), vehicle: saline) was 10 of 10 and the survivor count (dose: 2000.0 micrograms/kg/injection, schedule: Q01DX009 (ip), vehicle: saline) was 10 of 10.

In the case of `CCNCCNc1ccc(NCCNCC)c2c1C(=O)c1ccccc1C2=O`, the T/C (dose: 4.0 mg/kg/injection, schedule: Q01DX009 (ip), vehicle: acid diluted with saline) is reported as 127 % of control, the survivor count (dose: 32.0 mg/kg/injection, schedule: Q01DX009 (ip), vehicle: acid diluted with saline) is reported as 10 of 10 and the survivor count (dose: 64.0 mg/kg/injection, schedule: Q01DX009 (ip), vehicle: acid diluted with saline) is reported as 0 of 10.

For `Cc1ccc(Nc2c3ccccc3nc3ccccc23)cc1`, the T/C (dose: 37.5 mg/kg/injection, schedule: Q01DX009 (ip), vehicle: saline with Tween-80) was 126 % of control and the T/C (dose: 75.0 mg/kg/injection, schedule: Q01DX009 (ip), vehicle: saline with Tween-80) was 139 % of control.

With `Cc1cc(C)c(CCl)cc1CCl` the survivor count (dose: 80.0 mg/kg/injection, schedule: Q04DX003 (ip), vehicle: saline with Tween-80) was 9 of 10.

For `Cc1cc(C)c(NC(=O)Nc2ccc(Cl)cc2)c(C)c1`, the survivor count [2] was 9 of 10.

`CCCCCC/C=C/[N+]([O-])=NC(COC)C(C)O` (stereo not given) was tested, and the survivor count (dose: 20.0 mg/kg/injection, schedule: Q01DX009 (ip), vehicle: Klucel (hydroxypropylcellulose) (HPC)) was 10 of 10.

`CSCCC1NC(=O)C(C(C)=Nc2ccccc2)=C1O` (stereo not given) was tested, and the survivor count (dose: 400.0 mg/kg/injection, schedule: Q01DX009 (ip), vehicle: saline with Tween-80) was 10 of 10.

`C[n+]1ccc(Nc2ccc(NC(=O)c3ccc(Nc4cc[n+](C)c5ccc([N+](=O)[O-])cc45)cc3)cc2)cc1` was tested, and the survivor count [3] was 10 of 10 and the survivor count (dose: 128.0 mg/kg/injection, schedule: Q01DX009 (ip), vehicle: saline) was 10 of 10.

With `O=C(O)CCCc1ccc(N(CCCl)CCCl)cc1` the survivor count (dose: 0.18 mg/kg/injection, schedule: Q01DX009 (ip), vehicle: Klucel (hydroxypropylcellulose) (HPC)) was 12 of 12, the survivor count (dose: 0.75 mg/kg/injection, schedule: Q01DX009 (ip), vehicle: Klucel (hydroxypropylcellulose) (HPC)) was 12 of 12 and the T/C [1] was 133 % of control. The T/C (dose: 8.0 mg/kg/injection, schedule: Q01DX017 (ip), vehicle: saline) was 142 % of control, the T/C (dose: 8.0 mg/kg/injection, schedule: Q04DX005 (ip), vehicle: saline) was 126 % of control and the T/C (dose: 12.5 mg/kg/injection, schedule: Q01DX009 (ip), vehicle: saline) was 128 % of control. The T/C (dose: 15.0 mg/kg/injection, schedule: Q01DX009 (ip), vehicle: Klucel (hydroxypropylcellulose) (HPC)) was 144 % of control, the survivor count (dose: 16.0 mg/kg/injection, schedule: Q01DX009 (ip), vehicle: Klucel (hydroxypropylcellulose) (HPC)) was 7 of 8 and 10 of 10 and the survivor count (dose: 16.0 mg/kg/injection, schedule: Q01DX017 (ip), vehicle: saline) was 10 of 10. For the same compound, the T/C (dose: 16.0 mg/kg/injection, schedule: Q04DX005 (ip), vehicle: saline) was 135 % of control, the survivor count (dose: 24.0 mg/kg/injection, schedule: Q01DX009 (ip), vehicle: Klucel (hydroxypropylcellulose) (HPC)) was 2 of 10 and the T/C (dose: 25.0 mg/kg/injection, schedule: Q01DX009 (ip), vehicle: saline) was 140 % of control. For the same compound, the T/C (dose: 32.0 mg/kg/injection, schedule: Q01DX001 (ip), vehicle: saline) was 131 % of control [9 of 10 alive], the survivor count (dose: 32.0 mg/kg/injection, schedule: Q01DX009 (ip), vehicle: saline) was 7 of 10 and the survivor count (dose: 32.0 mg/kg/injection, schedule: Q01DX017 (ip), vehicle: saline) was 10 of 10. The T/C (dose: 32.0 mg/kg/injection, schedule: Q04DX003 (ip), vehicle: saline) was 140 % of control [8 of 10 alive], the T/C (dose: 32.0 mg/kg/injection, schedule: Q04DX005 (ip), vehicle: saline) was 147 % of control [9 of 10 alive] and the survivor count (dose: 48.0 mg/kg/injection, schedule: Q01DX009 (ip), vehicle: Klucel (hydroxypropylcellulose) (HPC)) was 0 of 10. For the same compound, the survivor count (dose: 64.0 mg/kg/injection, schedule: Q01DX001 (ip), vehicle: saline) was 4 of 10, the survivor count [3] was 0 of 10 and the survivor count (dose: 64.0 mg/kg/injection, schedule: Q04DX003 (ip), vehicle: saline) was 3 of 10. For the same compound, the survivor count (dose: 64.0 mg/kg/injection, schedule: Q04DX005 (ip), vehicle: saline) was 6 of 10, the survivor count (dose: 128.0 mg/kg/injection, schedule: Q01DX001 (ip), vehicle: saline) was 0 of 10 and the survivor count (dose: 128.0 mg/kg/injection, schedule: Q04DX003 (ip), vehicle: saline) was 0 of 10. For the same compound, the survivor count (dose: 128.0 mg/kg/injection, schedule: Q04DX005 (ip), vehicle: saline) was 0 of 10.

With `CCCCC(CC)C(O)C(C)C(C)O` (stereo not given) the survivor count [2] was 5 of 6.

For `COc1cc(C[C@H]2c3cc(OC)c(OC)cc3CCN2C)c(Oc2cc3c(cc2OC)-c2c(OC)c(OC)cc4c2[C@H](C3)N(C)CC4)cc1OC`, the T/C (dose: 25.0 mg/kg/injection, schedule: Q01DX009 (ip), vehicle: saline with Tween-80, evaluated on day 45) was 92 % of control, the T/C (dose: 25.0 mg/kg/injection, schedule: Q01DX009 (ip), vehicle: saline with Tween-80, evaluated on day 60) was 89 % of control and the survivor count (dose: 25.0 mg/kg/injection, schedule: Q01DX009 (ip), vehicle: saline with Tween-80) was 10 of 10 and 6 of 6. The survivor count (dose: 50.0 mg/kg/injection, schedule: Q01DX009 (ip), vehicle: saline with Tween-80) was 5 of 6, 9 of 10, 6 of 6, the survivor count (dose: 100.0 mg/kg/injection, schedule: Q01DX009 (ip), vehicle: saline with Tween-80) was 5 of 6 and the survivor count (dose: 200.0 mg/kg/injection, schedule: Q01DX009 (ip), vehicle: saline with Tween-80) was 6 of 6.

`O=C1N[C@@H]2C(=C[C@H](O)[C@@H](O)[C@H]2O)c2cc3c(c(O)c21)OCO3` was tested, and the survivor count (dose: 5.0 mg/kg/injection, schedule: Q01DX009 (ip), vehicle: saline with Tween-80) was 10 of 10 and the survivor count (dose: 10.0 mg/kg/injection, schedule: Q01DX009 (ip), vehicle: saline with Tween-80) was 9 of 10.

From PubChem BioAssay AID192 (DTP/NCI, 2004)
